These results are taken from patent US20140350088.

The chains behind the UniProt entries cited, without tags or fusion partners. Residues count along the entry.
UniProt P01275, 53-81: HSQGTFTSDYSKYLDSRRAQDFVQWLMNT

For the data set, the target named is biotinylated human glucagon (Homo sapiens) (UniProt P01275). Kind of data set: SPR. Particulars: L-DNA, synthetic protein, mirror-image nucleic acid.

The exact form of at least one protein or probe is not confirmed. A weaker result is weaker than the reference pair of the same experiment.

Consider “ACTCGAGAGGAAAGGTTGGTAAAGGTTCGGTTGGATTCACTCGAGT [259-H6-002-R01]”, for which, where the note is “rA at 1, reduced or lost binding vs parent, variant of 259-H6-002”, the binding result was “binds more weakly”.

Take “ACTCGAGAGGAAAGGTTGGTAAAGGTTCGGTTGGATTCACTCGAGT [259-H6-002-R02]”: under “rC at 2, reduced or lost binding vs parent, variant of 259-H6-002”, the binding result is recorded as “binds more weakly”.

For the sequence “ACTCGAGAGGAAAGGTTGGTAAAGGTTCGGTTGGATTCACTCGAGT [259-H6-002-R04]”, for the setting “rC at 4, affinity unchanged vs parent, variant of 259-H6-002”, the binding result is on record as “binds”.

Consider “ACTCGAGAGGAAAGGTTGGTAAAGGTTCGGTTGGATTCACTCGAGT [259-H6-002-R05]”, for which the binding result (rG at 5, reduced or lost binding vs parent, variant of 259-H6-002) is “binds more weakly”.

Regarding “ACTCGAGAGGAAAGGTTGGTAAAGGTTCGGTTGGATTCACTCGAGT [259-H6-002-R06]”, the binding result (rA at 6, affinity unchanged vs parent, variant of 259-H6-002) was “binds”.

For “ACTCGAGAGGAAAGGTTGGTAAAGGTTCGGTTGGATTCACTCGAGT [259-H6-002-R07]”, the binding result (rG at 7, reduced or lost binding vs parent, variant of 259-H6-002) was “binds more weakly”.

For “ACTCGAGAGGAAAGGTTGGTAAAGGTTCGGTTGGATTCACTCGAGT [259-H6-002-R08]”, where the note is “ribo at 8, improved vs parent, 37 C, synthetic backbone”, the binding result is “binds”.

For “ACTCGAGAGGAAAGGTTGGTAAAGGTTCGGTTGGATTCACTCGAGT [259-H6-002-R10]”, the binding result (rG at 10, reduced or lost binding vs parent, variant of 259-H6-002) is recorded as “binds more weakly”.

For the sequence “ACTCGAGAGGAAAGGTTGGTAAAGGTTCGGTTGGATTCACTCGAGT [259-H6-002-R11]”, the binding result (rA at 11, reduced or lost binding vs parent, variant of 259-H6-002) is given as “binds more weakly”.

For “ACTCGAGAGGAAAGGTTGGTAAAGGTTCGGTTGGATTCACTCGAGT [259-H6-002-R12]”, the binding result (rA at 12, reduced or lost binding vs parent, variant of 259-H6-002) was “binds more weakly”.

On to “ACTCGAGAGGAAAGGTTGGTAAAGGTTCGGTTGGATTCACTCGAGT [259-H6-002-R13-R24]”, for which the binding result (rA at 13, rG at 24, better than single substitutions, variant of 259-H6-002) is “binds”.

Consider “ACTCGAGAGGAAAGGTTGGTAAAGGTTCGGTTGGATTCACTCGAGT [259-H6-002-R14]”, for which the binding result (ribo at 14, reduced or lost vs parent, 37 C, synthetic backbone) was “binds more weakly”.

For “ACTCGAGAGGAAAGGTTGGTAAAGGTTCGGTTGGATTCACTCGAGT [259-H6-002-R15]”, the binding result (ribo at 15, reduced or lost vs parent, 37 C, synthetic backbone) is “binds more weakly”.

For the sequence “ACTCGAGAGGAAAGGTTGGTAAAGGTTCGGTTGGATTCACTCGAGT [259-H6-002-R18]”, the binding result (ribo at 18, reduced or lost vs parent, 37 C, synthetic backbone) was “binds more weakly”.

As for “ACTCGAGAGGAAAGGTTGGTAAAGGTTCGGTTGGATTCACTCGAGT [259-H6-002-R19]”, the binding result (ribo at 19, reduced or lost vs parent, 37 C, synthetic backbone) was “binds more weakly”.

In the case of “ACTCGAGAGGAAAGGTTGGTAAAGGTTCGGTTGGATTCACTCGAGT [259-H6-002-R21]”, for the setting “ribo at 21, reduced or lost vs parent, 37 C, synthetic backbone”, the binding result is listed as “binds more weakly”.

For the sequence “ACTCGAGAGGAAAGGTTGGTAAAGGTTCGGTTGGATTCACTCGAGT [259-H6-002-R22]”, the binding result (ribo at 22, improved vs parent, 37 C, synthetic backbone) is reported as “binds”.

Regarding “ACTCGAGAGGAAAGGTTGGTAAAGGTTCGGTTGGATTCACTCGAGT [259-H6-002-R23]”, under “ribo at 23, reduced or lost vs parent, 37 C, synthetic backbone”, the binding result is “binds more weakly”.

Turning to “ACTCGAGAGGAAAGGTTGGTAAAGGTTCGGTTGGATTCACTCGAGT [259-H6-002-R24]”, the binding result (rG at 24, variant of 259-H6-002) is “binds”.

Consider “ACTCGAGAGGAAAGGTTGGTAAAGGTTCGGTTGGATTCACTCGAGT [259-H6-002-R25]”, for which the binding result (ribo at 25, reduced or lost vs parent, 37 C, synthetic backbone) is “binds more weakly”.

As for “ACTCGAGAGGAAAGGTTGGTAAAGGTTCGGTTGGATTCACTCGAGT [259-H6-002-R28]”, the binding result (ribo at 28, reduced or lost vs parent, 37 C, synthetic backbone) is reported as “binds more weakly”.

Regarding “ACTCGAGAGGAAAGGTTGGTAAAGGTTCGGTTGGATTCACTCGAGT [259-H6-002-R29]”, the binding result (ribo at 29, reduced or lost vs parent, 37 C, synthetic backbone) was “binds more weakly”.

On to “ACTCGAGAGGAAAGGTTGGTAAAGGTTCGGTTGGATTCACTCGAGT [259-H6-002-R30]”, for which the binding result (rG at 30, variant of 259-H6-002) was “binds”.

On to “ACTCGAGAGGAAAGGTTGGTAAAGGTTCGGTTGGATTCACTCGAGT [259-H6-002-R33]”, for which the binding result (ribo at 33, reduced or lost vs parent, 37 C, synthetic backbone) was “binds more weakly”.

“ACTCGAGAGGAAAGGTTGGTAAAGGTTCGGTTGGATTCACTCGAGT [259-H6-002-R34]”: the binding result (ribo at 34, reduced or lost vs parent, 37 C, synthetic backbone) is reported as “binds more weakly”.

For the sequence “ACTCGAGAGGAAAGGTTGGTAAAGGTTCGGTTGGATTCACTCGAGT [259-H6-002-R35]”, the binding result (ribo at 35, reduced or lost vs parent, 37 C, synthetic backbone) is listed as “binds more weakly”.

As to “ACTCGAGAGGAAAGGTTGGTAAAGGTTCGGTTGGATTCACTCGAGT [259-H6-002-R38]”, the binding result (ribo at 38, improved vs parent, 37 C, synthetic backbone) is given as “binds”.

As to “ACTCGAGAGGAAAGGTTGGTAAAGGTTCGGTTGGATTCACTCGAGT [259-H6-002-R39]”, the binding result (ribo at 39, improved vs parent, 37 C, synthetic backbone) is “binds”.

As for “ACTCGAGAGGAAAGGTTGGTAAAGGTTCGGTTGGATTCACTCGAGT [259-H6-002-R40]”, where the note is “ribo at 40, reduced or lost vs parent, 37 C, synthetic backbone”, the binding result is “binds more weakly”.

As to “ACTCGAGAGGAAAGGTTGGTAAAGGTTCGGTTGGATTCACTCGAGT [259-H6-002-R42]”, where the note is “ribo at 42, reduced or lost vs parent, 37 C, synthetic backbone”, the binding result is “binds more weakly”.

Consider “ACTCGAGAGGAAAGGTTGGTAAAGGTTCGGTTGGATTCACTCGAGT [259-H6-002-R43]”, for which the binding result (ribo at 43, reduced or lost vs parent, 37 C, synthetic backbone) is “binds more weakly”.

Turning to “ACTCGAGAGGAAAGGTTGGTAAAGGTTCGGTTGGATTCACTCGAGT [259-H6-002-R44]”, the binding result (ribo at 44, improved vs parent, 37 C, synthetic backbone) is reported as “binds”.

Regarding “ACTCGAGAGGAAAGGTTGGTAAAGGTTCGGTTGGATTCACTCGAGU [259-H6-002-R46]”, the binding result (rU at 46, affinity unchanged vs parent, variant of 259-H6-002) was “binds”.

Consider “ACTCGAGAGGAAAGGTTGGTAAAGGTTCGGTTGGATTCACUCGAGT [259-H6-002-R41]”, for which, under “rU at 41, reduced or lost vs parent, 37 C, synthetic backbone”, the binding result is given as “binds more weakly”.

Regarding “ACTCGAGAGGAAAGGTTGGTAAAGGTTCGGTTGGATUCACTCGAGT [259-H6-002-R37]”, the binding result (rU at 37, reduced or lost vs parent, 37 C, synthetic backbone) is “binds more weakly”.

Consider “ACTCGAGAGGAAAGGTTGGTAAAGGTTCGGTTGGAUTCACTCGAGT [259-H6-002-R13-R24-R30-R36]”, for which the binding result (rA at 13, rG at 24 and 30, rU at 36, slightly better than R13-R24-R36, variant of 259-H6-002) is recorded as “binds”.

With “ACTCGAGAGGAAAGGTTGGTAAAGGTTCGGTTGGAUTCACTCGAGT [259-H6-002-R13-R36]”, for the setting “rA at 13, rU at 36, better than single substitutions, variant of 259-H6-002”, the binding result is on record as “binds”.

Take “ACTCGAGAGGAAAGGTTGGTAAAGGTTCGGTTGGAUTCACTCGAGT [259-H6-002-R36]”: the binding result (rU at 36, variant of 259-H6-002) is “binds”.

Turning to “ACTCGAGAGGAAAGGTTGGTAAAGGTTCGGTUGGATTCACTCGAGT [259-H6-002-R32]”, the binding result (rU at 32, reduced or lost vs parent, 37 C, synthetic backbone) is on record as “binds more weakly”.

With “ACTCGAGAGGAAAGGTTGGTAAAGGTTCGGUTGGATTCACTCGAGT [259-H6-002-R31]”, the binding result (rU at 31, improved vs parent, 37 C, synthetic backbone) is recorded as “binds”.

“ACTCGAGAGGAAAGGTTGGTAAAGGTUCGGTTGGATTCACTCGAGT [259-H6-002-R27]”: under “rU at 27, reduced or lost vs parent, 37 C, synthetic backbone”, the binding result is listed as “binds more weakly”.

In the case of “ACTCGAGAGGAAAGGTTGGTAAAGGUTCGGTTGGATTCACTCGAGT [259-H6-002-R26]”, under “rU at 26, reduced or lost vs parent, 37 C, synthetic backbone”, the binding result was “binds more weakly”.

Consider “ACTCGAGAGGAAAGGTTGGUAAAGGTTCGGTTGGATTCACTCGAGT [259-H6-002-R20]”, for which, under “rU at 20, reduced or lost vs parent, 37 C, synthetic backbone”, the binding result is listed as “binds more weakly”.

As for “ACTCGAGAGGAAAGGTUGGTAAAGGTTCGGTTGGATTCACTCGAGT [259-H6-002-R17]”, the binding result (rU at 17, reduced or lost vs parent, 37 C, synthetic backbone) is listed as “binds more weakly”.
